The target in this assay is TGF-β1重组蛋白(义翘神州) (UniProt P01137). The experiment in a line: ELISA, TGF-β coated 0.5 μg/mL, HRP goat anti-human detection; reference sample. (In general: An ELISA detects its analyte on a solid surface through an enzyme-linked reagent.)

Chains of the proteins cited; added tags and fusions are not shown. Residues count along the entry.
UniProt P01137, residues 279-390: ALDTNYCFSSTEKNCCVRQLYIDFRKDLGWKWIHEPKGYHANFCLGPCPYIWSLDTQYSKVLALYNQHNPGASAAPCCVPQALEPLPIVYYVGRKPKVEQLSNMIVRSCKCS

Results are given in words; binding and its absence hold for the method and conditions named. Some binding calls cover weakened binding; strength is not graded here.

Consider M7824 (from UniProt P0DOX8 1-216), for which the binding entry was “binds”.

The values are drawn from patent publication CN113717287A.
